± gives the standard deviation of the averaged measurements. The list shows a part of the results. This data set is noisy: repeats of one test often differ as much as different tests do.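 U2OS cells expressing ACE2 were combined with U2OS cells expressing full-length spike, and imaging quantified fusion as the fraction of nuclei displaying both cell types' fluorescent markers. Non-toxic compounds with a fusion z-score under -3, i.e., over three standard deviations below the plate's DMSO wells, are called inhibitory hits.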

The values that follow come from the supplement of paper PMC8104966.

The assay has as its system U2OS ACE2 x SARS-CoV-2 spike co-culture. In words: cell-cell fusion (fraction fused) z-score vs plate DMSO control; higher = more fusion. As to conditions: 30 µM; 5 h; toxicity class: non-toxic, passed QC.
Turning to `CC1CC[C@@]2(OC1)O[C@H]1CC3C4CC[C@@H]5C[C@@H](O)CC[C@]5(C)C4CC[C@]3(C)[C@H]1[C@@H]2C` (stereo partly specified), the “cell-cell fusion (z-score)” value was inactive: 2.94. Consider `O=C(/C=C/c1ccc(O)c(O)c1)c1ccc(O)cc1O` [Butein], for which the “cell-cell fusion (z-score)” value was inactive: -1.35. Consider `C[C@H]1c2cccc(O)c2C(=O)C2=C(O)[C@]3(O)C(=O)C(C(N)=O)=C(O)[C@@H](N(C)C)[C@@H]3[C@@H](O)[C@@H]21.Cl`, for which the “cell-cell fusion (z-score)” value was inactive: 1.25. As to `CC(=O)O[C@@H]1CC[C@]2(C)C3CC[C@]4(C)C(=O)CCC4C3CC[C@H]2C1` (stereo partly specified), the “cell-cell fusion (z-score)” value was inactive: 2.07. Next, `Cn1c(=O)c2c(ncn2CC(O)CO)n(C)c1=O` (stereo unspecified) [Diprophylline]: inactive: 3.47; `CC1=C(/C=C/C(C)=C/C=C/C(C)=C/CO)C(C)(C)CCC1`: inactive: 2.99. As to `COc1cc(C(=O)NS(=O)(=O)c2ccccc2C)ccc1Cc1cn(C)c2ccc(NC(=O)OC3CCCC3)cc12` [Zafirlukast], the “cell-cell fusion (z-score)” value is inactive: 4.72.

`CCCCS(=O)(=O)N[C@@H](Cc1ccc(OCCCCC2CCNCC2)cc1)C(=O)O.Cl.O` [Tirofiban hydrochloride monohydrate]: the “cell-cell fusion (z-score)” value is inactive: 1.11. Take `N#C/C(=C\c1cccc(O)c1)C(=O)O` [alpha-CYANO-3-HYDROXYCINNAMIC ACID]: the “cell-cell fusion (z-score)” value was inactive: 2.19.

For `Br.C=CCN1CCc2c(cc(O)c(O)c2Br)[C@@H](c2ccccc2)C1` [R(+)-6-Bromo-APB hydrobromide], the “cell-cell fusion (z-score)” value was inactive: -0.11. For `CC(C)=CCCC(C)[C@@H]1CC[C@]2(C)C3=C(CC[C@@]12C)C1(C)CC[C@H](O)C(C)(C)C1CC3` (stereo partly specified), the “cell-cell fusion (z-score)” value is inactive: 1.77. The value for `COc1cc2c(NC3CCN(C)CC3)nc(N3CCCN(C)CC3)nc2cc1OCCCN(C)C` was inactive: 3.26. `CC(CN1c2ccccc2Sc2ccccc21)N(C)C.Cl` (stereo unspecified) [Promethazine hydrochloride]: the “cell-cell fusion (z-score)” value was inactive: 0.0397.

For the compound `Cl.OC(CCN1CCCC1)(c1ccccc1)C1CCCCC1` (stereo unspecified) [Procyclidine hydrochloride], the “cell-cell fusion (z-score)” value is inactive: 1.74.

In the case of `CN1CCN(c2cc3c(cc2F)c(=O)c(C(=O)O)cn3-c2ccc(F)cc2)CC1.Cl`, the “cell-cell fusion (z-score)” value was inactive: 3.06. In the case of `COc1ccc2[n-]c([S@@](=O)Cc3ncc(C)c(OC)c3C)nc2c1.COc1ccc2[n-]c([S@@](=O)Cc3ncc(C)c(OC)c3C)nc2c1.[Mg+2]` [Esomeprazole Magnesium], the “cell-cell fusion (z-score)” value is inactive: 2.53. Consider `CSc1ccc2c(c1)N(CCC1CCCCN1C)c1ccccc1S2.Cl` (stereo unspecified), for which the “cell-cell fusion (z-score)” value was inactive: 0.254. As to `CC(C)=CCC/C(C)=C/COc1ccc2ccc(=O)oc2c1` [Auraptene], the “cell-cell fusion (z-score)” value is inactive: 1.8. For the compound `Cl.Fc1ccc([C@@H]2CCNC[C@H]2COc2ccc3c(c2)OCO3)cc1` [Paroxetine hydrochloride], the “cell-cell fusion (z-score)” value is inactive: 1.82.

`CNCCC(Oc1ccc(C(F)(F)F)cc1)c1ccccc1.Cl` (stereo unspecified) [Fluoxetine hydrochloride]: the “cell-cell fusion (z-score)” value is inactive: -1.43. Turning to `Nc1nc(OCc2ccccc2)c2nc[nH]c2n1` [O6-benzylguanine], the “cell-cell fusion (z-score)” value is inactive: 0.00635. On to `OC[C@@H](O)[C@@H](O)[C@H](O)[C@@H](O)CO` [D-Sorbitol], for which the “cell-cell fusion (z-score)” value is inactive: 2.25. With `Cc1cccc(C)c1NC1=NCCCS1.Cl` [Xylazine hydrochloride], the “cell-cell fusion (z-score)” value was inactive: 2.16.

With `CCCCNc1ccc(C(=O)OCCOCCOCCOCCOCCOCCOCCOCCOCCOC)cc1`, the “cell-cell fusion (z-score)” value was inactive: 0.917. As to `COC(=O)C[C@H]1C(C)(C)C(=O)[C@@H]2CC3C4=CC(=O)O[C@@H](c5ccoc5)[C@]4(C)CCC3[C@@]1(C)C2=O` (stereo partly specified), the “cell-cell fusion (z-score)” value is inactive: 2.28. On to `CN1CCN(C2=Nc3ccccc3Oc3ccc(Cl)cc32)CC1.O=C(O)CCC(=O)O` [Loxapine succinate salt], for which the “cell-cell fusion (z-score)” value is inactive: 3.51. In the case of `CC1(C)NC(=O)N(c2ccc([N+](=O)[O-])c(C(F)(F)F)c2)C1=O` [Nilutamide], the “cell-cell fusion (z-score)” value is inactive: 1.09. `COc1cc(O)c2c(=O)c3cc(OC)c(OC)cc3oc2c1`: the “cell-cell fusion (z-score)” value is inactive: 2.52.

For the compound `OCC(S)CS` (stereo unspecified) [Dithiopropanol], the “cell-cell fusion (z-score)” value was inactive: 0.502. As to `OCC(S)CS` (stereo unspecified), the “cell-cell fusion (z-score)” value was -3.15 ± 2.1.

As to `CCCNCC(O)COc1ccccc1C(=O)CCc1ccccc1.Cl` (stereo unspecified), the “cell-cell fusion (z-score)” value is inactive: 0.775. Take `CCCNCC(O)COc1ccccc1C(=O)CCc1ccccc1.Cl` (stereo unspecified) [Propafenone hydrochloride]: the “cell-cell fusion (z-score)” value is inactive: 2.83. Regarding `Cc1ccnc(NS(=O)(=O)c2ccc(N)cc2)n1` [Sulfamerazine], the “cell-cell fusion (z-score)” value is inactive: 2.28. The value for `NCCO.NCCO.NCCO.NCCO.O=C(O)CN(CCN(CC(=O)O)CC(=O)O)CC(=O)O` was inactive: 1.35. With `Cl.N=C(N)c1ccc(CS(=O)(=O)F)cc1` [4-Amidinophenylmethanesulfonyl fluoride hydrochloride], the “cell-cell fusion (z-score)” value was inactive: 1.3. Regarding `Cc1nccn1CC1CCc2c(c3ccccc3n2C)C1=O` (stereo unspecified), the “cell-cell fusion (z-score)” value is inactive: 1.46. Turning to `CNC(=O)c1ccc(N2C(=S)N(c3ccc(C#N)c(C(F)(F)F)c3)C(=O)C2(C)C)cc1F` [MDV3100 (Enzalutamide)], the “cell-cell fusion (z-score)” value was inactive: 0.942. For `CC(=O)O[C@@H]1CC[C@@]2(C)C(CC[C@]3(C)C2CC=C2C4CC(C)(C)CC[C@]4(C(=O)O)CC[C@]23C)C1(C)C` (stereo partly specified), the “cell-cell fusion (z-score)” value is inactive: 1.56. In the case of `C=C(c1ccc(C(=O)O)cc1)c1cc2c(cc1C)C(C)(C)CCC2(C)C` [Bexarotene], the “cell-cell fusion (z-score)” value is inactive: 2.04. For `Cl.NCCc1ccc(O)c(O)c1`, the “cell-cell fusion (z-score)” value is inactive: -1.46. Regarding `OC[C@H]1O[C@H](n2cnc3c2N=CNC[C@H]3O)C[C@H]1O` [Pentostatin], the “cell-cell fusion (z-score)” value was inactive: 0.439. For `COc1ccc([C@@H](C)C(=O)c2ccc(O)cc2O)cc1`, the “cell-cell fusion (z-score)” value is inactive: 3.26. Take `C[C@@H](c1ncncc1F)[C@](O)(Cn1cncn1)c1ccc(F)cc1F` [Voriconazole]: the “cell-cell fusion (z-score)” value is inactive: 1.96. Consider `COc1ccc2nc(S(=O)Cc3ncc(C)c(OC)c3C)[nH]c2c1` (stereo unspecified), for which the “cell-cell fusion (z-score)” value is inactive: -2.04. The value for `CC#CCn1c(N2CCC[C@@H](N)C2)nc2c1c(=O)n(Cc1nc(C)c3ccccc3n1)c(=O)n2C.Cl` was inactive: 2.57; that for `CNC(=O)c1ccc(N2C(=S)N(c3ccc(C#N)c(C(F)(F)F)c3)C(=O)C2(C)C)cc1F` [Enzalutamide] was inactive: 1.61.

Consider `O=C1c2ccccc2-c2n[nH]c3cccc1c23`, for which the “cell-cell fusion (z-score)” value was inactive: 2.06. `COc1cc(O)c2c(=O)c(O)c(-c3ccccc3)oc2c1`: the “cell-cell fusion (z-score)” value was inactive: 1.95. On to `CN1CCCN=C1/C=C/c1cccc(O)c1.O=C(O)c1cc2ccccc2c(Cc2c(O)c(C(=O)O)cc3ccccc23)c1O`, for which the “cell-cell fusion (z-score)” value is inactive: 2.84. For the compound `Cc1cnc(NC(=O)C2=C([O-])c3ccccc3S(=O)(=O)N2C)s1.[Na+]`, the “cell-cell fusion (z-score)” value was inactive: 3.64.

Take `Cc1onc(-c2ccccc2)c1C(=O)N[C@@H]1C(=O)N2[C@@H]1SC(C)(C)[C@@H]2C(=O)[O-].[Na+]` [Oxacillin sodium]: the “cell-cell fusion (z-score)” value is inactive: 2.59.

Take `COCCOC(=O)C1=C(C)NC(C)=C(C(=O)OC(C)C)C1c1cccc([N+](=O)[O-])c1` (stereo unspecified): the “cell-cell fusion (z-score)” value is inactive: 2.14. On to `COCCOC(=O)C1=C(C)NC(C)=C(C(=O)OC(C)C)C1c1cccc([N+](=O)[O-])c1` (stereo unspecified) [Nimodipine], for which the “cell-cell fusion (z-score)” value was inactive: 3.25. `Nc1ncnc2c1ncn2[C@@H]1O[C@H](CO)[C@H](O)C1O` (stereo partly specified) [Adenosine]: the “cell-cell fusion (z-score)” value is inactive: 1.21.

As for `CC(C)/C(O)=C1/C(=O)O[C@@H](c2ccoc2)[C@]2(C)C(O)[C@@H](O)[C@@]34OC5(C)OC67CC(C)(C(O)[C@]6(O)[C@@H](O)[C@]3(O5)C12)[C@H](CC(=O)O)[C@]74C` (stereo partly specified), the “cell-cell fusion (z-score)” value is inactive: 2.36.

As for `CCCCOc1cc(C(=O)NCCN(CC)CC)c2ccccc2n1` [Dibucaine], the “cell-cell fusion (z-score)” value was inactive: 2.65. In the case of `Cl.Oc1ccc2c3c1OC1[C@@H](O)CC[C@@]4(O)[C@@H](C2)N(CC2CCC2)CC[C@]314` (stereo partly specified), the “cell-cell fusion (z-score)” value is inactive: 1.03.

As for `CCOc1cc(CC(=O)N[C@@H](CC(C)C)c2ccccc2N2CCCCC2)ccc1C(=O)O` [Repaglinide], the “cell-cell fusion (z-score)” value is inactive: 1.02.

For `O=C(Cn1ccnc1[N+](=O)[O-])NCc1ccccc1` [Benznidazole], the “cell-cell fusion (z-score)” value was inactive: 1.67.

Regarding `CC1(C)C(\C=C(\Cl)Cl)C1C(=O)OCc1cccc(Oc2ccccc2)c1` (stereo unspecified) [Permethrin], the “cell-cell fusion (z-score)” value was inactive: 2.85.

For `N#CC[C@@H](C1CCCC1)n1cc(-c2ncnc3[nH]ccc23)cn1` [S-Ruxolitinib], the “cell-cell fusion (z-score)” value is inactive: -0.171. The value for `CC[C@H](Nc1ncnc2[nH]cnc12)c1nc2cccc(F)c2c(=O)n1-c1ccccc1` was inactive: 0.588; that for `CN(C)CCCCSC(=N)N` was inactive: -0.302. Next, `COc1ccccc1OCC(O)CN1CCN(CC(=O)Nc2c(C)cccc2C)CC1` (stereo unspecified) [Ranolazine (Ranexa)]: inactive: 0.778; `FC(F)(F)c1ccccc1-n1ccnc1` [1-[2-(Trifluoromethyl)phenyl]imidazole]: inactive: 1.26. The value for `COc1cccc(-c2cc(=O)c3cc(OC)ccc3o2)c1` was inactive: 2.39; that for `CCC(NC(C)C)C(O)c1ccc(O)c(O)c1.CS(=O)(=O)O` (stereo unspecified) [Isoetharine mesylate salt] was inactive: -1.4. Take `Clc1ccc(COC(Cn2ccnc2)c2ccc(Cl)cc2Cl)c(Cl)c1.O=[N+]([O-])O` (stereo unspecified): the “cell-cell fusion (z-score)” value is active: -3.11. Regarding `NCC1(CC(=O)O)CCCCC1` [Gabapentin], the “cell-cell fusion (z-score)” value is inactive: 2.5.

With `CCCCNc1cc(C(=O)O)cc(S(N)(=O)=O)c1Oc1ccccc1` [Bumetanide], the “cell-cell fusion (z-score)” value is inactive: 2.16. `O=c1cccc2n1C[C@@H]1CNC[C@H]2C1`: the “cell-cell fusion (z-score)” value is inactive: 1.17.
